Data taken from patent US20080113868A1, “Colorant compositions and their use as pH sensitive color indicators” (priority 2006, published 2008).

Test: Skin staining test
Assay type: in vivo, human
Set-up: key: 1: no change from pre-washed color; 2: slight removal of color; 3: removal of about 50% of color; 4: less than 25% color remaining; 5: slight to no stain remaining
Conditions: palm of volunteer, dried 15 minutes, washed with liquid soap and warm water; visual rating

Question: For “Phenyl-methyliumylidene-di(4,1-phenyleneamino)N,N-polyethyleneoxy(5), Chloride [Colorant 8]”, which “Skin staining Rating Scale Value” is on record?
Answer: 5

Question: Which “Skin staining Rating Scale Value” does the source give for “Phenyl-methyliumylidene-di(4,1-phenyleneamino)N,N-polyethyleneoxy(10), Chloride [Colorant 1]” here?
Answer: 5

Question: Which “Skin staining Rating Scale Value” does the source give for `CN(C)c1ccc(C(=C2C=CC(=[N+](C)C)C=C2)c2ccccc2)cc1` [Comp. Colorant 4, Basic Green 4, reference compound] here?
Answer: 3
